Where a name gives a salt, the structure may show the parent alone.
How the values were obtained:
[1] = following i.p. administration (Kim et al., 2006; Janas et al., 2005); cited from earlier work
[2] = test system: scopolamine-treated NMRI mice; test: Morris water maze spatial reference memory task, reversal of scopolamine-induced cognitive deficits; type: in vivo
Procedure: Female, NMRI mice aged 3-4 months were from Harlan, UK.
Mice were group housed (7-9 per cage) and maintained with light from 7 am-7 pm and experiments carried out in the light phase. […] They were separated into 6 groups to receive drug administrations as follows:
The injection volume for drugs was 0.2 ml per 30 g animal weight and they were injected intraperitoneally. The doses were as indicated above.
The water maze consisted of a water-filled pool (1.5 m diameter; 20±2° C.) in which a platform submerged 1 cm below water surface was the only means of escape. Mice were released from 4 cardinal sites (South, West, North and East) facing the wall of the pool in random fashion and thus had to acquire spatial knowledge of the exact platform location by spatial mapping procedures using distal cues.
Each animal was given 6 trials/day and was allowed to swim for a maximum time of 60 seconds and stay 30 seconds on the platform. […] An inter-trial interval of 10-20 minutes was given. The animals were trained for 4 consecutive days and received probe trials (free swim for 60 seconds without platform in the pool) approximately 1.5 and 24 hours post-training to test short and long-term memory, respectively. The behaviour of animals was recorded via an overhead camera and data transmitted to the PC for online storage and analysis (EthoVision basic version 3.0.8. Noldus Information Technology, Netherlands).
Probe trial data were analysed by one-way ANOVA and the appropriate post-hoc tests (Bonferroni's multiple comparison test or Newman Keuls) were carried out to determine the source of a significant main effect or interaction. Analyses were performed two-tailed and the null hypothesis was […] at probability levels of 5% (p<0.05). Only terms for reliable differences are mentioned in the text for simplicity.

[3] = scopolamine (0.5) then vehicle, mg/kg i.p., hydrobromide

SMILES: CN1[C@@H]2C[C@@H](OC(=O)[C@H](CO)c3ccccc3)C[C@H]1[C@@H]1O[C@@H]12 [scopolamine, scopolamine hydrobromide]
- Tmax [1]: 20 to 40 min
- thigmotaxis during memory phase ([2]; scopolamine 0.5 mg/kg then saline, relative to saline-treated controls (not significant)): increased thigmotaxis
- proportion of time spent in target quadrant (probe trials) ([2]; scopolamine 0.5 mg/kg then saline, versus 25% chance): no better than chance
- Learning [2, 3]: did not learn the task and learning deficit and ↓
- Thigmotaxis [2, 3]: differed from controls and ↓
- S-T memory ([2]; scopolamine (0.5) then vehicle, mg/kg i.p., probe 1.5 h, hydrobromide): memory deficit and ↓

Source: US9211294B2, “Phenothiazine compounds for treating mild cognitive impairment” (WisTa Laboratories Ltd., priority 2007, dated 2015)
